Source: publication PMC10863982 (2024)
No constants are given. Whether binding was seen depends on the method and setting. Binding calls can cover weak binding; strength is not graded here. Tags and fused reporters may be left off the sequences shown. For some of these results: In cells and extracts the contact can be indirect.

Chains of the proteins cited; added tags and fusions are not shown. Lines headed by an entry give the natural chain unless they say otherwise; changes in a name come on top.
UniProt O64862: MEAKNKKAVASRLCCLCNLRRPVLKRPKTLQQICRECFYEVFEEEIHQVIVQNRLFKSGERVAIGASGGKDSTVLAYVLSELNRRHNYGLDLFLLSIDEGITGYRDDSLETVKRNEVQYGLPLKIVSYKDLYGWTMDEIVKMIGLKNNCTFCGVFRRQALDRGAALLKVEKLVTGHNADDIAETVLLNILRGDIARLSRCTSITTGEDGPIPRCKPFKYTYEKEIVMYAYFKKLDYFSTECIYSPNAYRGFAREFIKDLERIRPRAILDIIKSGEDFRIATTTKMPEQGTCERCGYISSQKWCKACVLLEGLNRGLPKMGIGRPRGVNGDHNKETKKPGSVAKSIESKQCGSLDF

Legend:
[1] = target: T1, CTU2-GFP (Arabidopsis thaliana) (UniProt O65628); assay: co-IP; ROL5-FLAG and CTU2-GFP co-expressed in N. benthamiana leaves; lysate precipitated with GFP-Trap magnetic beads at 4°C for 2 hr; wash with 150–500 mM NaCl; western blot with anti-FLAG and anti-GFP
T1 sequence: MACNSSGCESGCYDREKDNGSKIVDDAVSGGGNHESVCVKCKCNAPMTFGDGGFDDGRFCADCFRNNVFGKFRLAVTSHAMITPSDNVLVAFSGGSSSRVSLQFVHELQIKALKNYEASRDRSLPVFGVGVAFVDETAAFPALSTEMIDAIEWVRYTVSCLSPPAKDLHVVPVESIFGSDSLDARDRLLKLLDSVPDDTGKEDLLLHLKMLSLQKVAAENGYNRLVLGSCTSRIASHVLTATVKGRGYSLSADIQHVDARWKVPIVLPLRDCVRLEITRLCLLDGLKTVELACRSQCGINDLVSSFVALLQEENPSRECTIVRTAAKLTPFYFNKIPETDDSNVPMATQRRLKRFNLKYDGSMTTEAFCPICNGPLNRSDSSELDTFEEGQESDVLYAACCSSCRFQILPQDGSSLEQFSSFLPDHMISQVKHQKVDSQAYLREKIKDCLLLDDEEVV

[2] = target: T2, GST-CTU2 (Arabidopsis thaliana) (UniProt O65628); assay: pull-down; GST or GST-CTU2 (5 μg) coupled to glutathione beads, incubated with ROL5-His (10 μg) in 0.5 mL 50 mM Tris-HCl pH 7.5, 150 mM NaCl, 1 mM EDTA, 2 mM DTT at 4°C for 2 hr; wash with binding buffer plus 2% NP-40; western blot with anti-GST or anti-His; both purified
T2 sequence: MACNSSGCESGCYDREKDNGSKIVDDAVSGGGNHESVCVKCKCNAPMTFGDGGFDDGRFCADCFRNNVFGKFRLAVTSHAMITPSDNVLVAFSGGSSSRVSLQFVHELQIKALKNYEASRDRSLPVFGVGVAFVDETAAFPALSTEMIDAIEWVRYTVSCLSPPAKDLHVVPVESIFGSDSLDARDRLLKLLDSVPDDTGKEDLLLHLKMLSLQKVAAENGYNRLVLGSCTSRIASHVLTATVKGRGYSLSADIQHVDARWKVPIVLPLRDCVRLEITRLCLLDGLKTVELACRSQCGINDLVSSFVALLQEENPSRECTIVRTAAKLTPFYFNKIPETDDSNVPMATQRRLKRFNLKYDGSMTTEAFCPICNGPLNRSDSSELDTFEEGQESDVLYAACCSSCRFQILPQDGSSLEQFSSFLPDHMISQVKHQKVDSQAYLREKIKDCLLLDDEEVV

[3] = target: T3, cLUC-CTU2 (Arabidopsis thaliana) (UniProt O65628); assay: split reporter; split luciferase, nLUC and cLUC fusions transiently expressed in N. benthamiana leaves, 48 hr, 1 mM luciferin, CCD camera
T3 sequence: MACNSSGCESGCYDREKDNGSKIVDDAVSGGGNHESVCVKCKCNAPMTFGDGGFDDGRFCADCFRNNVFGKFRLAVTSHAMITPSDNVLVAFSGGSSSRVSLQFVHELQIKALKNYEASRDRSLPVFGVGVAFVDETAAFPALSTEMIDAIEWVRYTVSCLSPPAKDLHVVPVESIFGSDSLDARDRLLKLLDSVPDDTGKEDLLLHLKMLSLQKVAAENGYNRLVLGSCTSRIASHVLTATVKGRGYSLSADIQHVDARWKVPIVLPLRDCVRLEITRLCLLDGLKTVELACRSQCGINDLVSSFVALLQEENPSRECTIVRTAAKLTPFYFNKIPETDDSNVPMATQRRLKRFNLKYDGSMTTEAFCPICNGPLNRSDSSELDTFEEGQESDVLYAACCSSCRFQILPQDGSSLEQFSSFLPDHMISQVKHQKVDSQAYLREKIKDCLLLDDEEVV

[4] = target: ROL5 in pGBKT7 (yeast two-hybrid fusion) (Arabidopsis thaliana) (UniProt O64862); assay: two-hybrid; Matchmaker GAL4 system, bait in pGBKT7 and prey in pGADT7 co-transformed into yeast AH109; growth on SD/-Leu/-Trp/-His medium; empty vectors as negative controls

**Q.** ROL5-FLAG (from UniProt O64862) was tested. Which binding [1] did it give?
**A.** Its binding is “binds”.

**Q.** With ROL5-His (from UniProt O64862) as the molecule, how does the binding [2] read?
**A.** The binding was “binds”.

**Q.** ROL5-nLUC (from UniProt O64862) was tested. Which binding [3] did it give?
**A.** Its binding is “binds”.

B1: CTU2 in pGADT7 (yeast two-hybrid fusion) (protein, UniProt O65628 1-458)
chain: MACNSSGCESGCYDREKDNGSKIVDDAVSGGGNHESVCVKCKCNAPMTFGDGGFDDGRFCADCFRNNVFGKFRLAVTSHAMITPSDNVLVAFSGGSSSRVSLQFVHELQIKALKNYEASRDRSLPVFGVGVAFVDETAAFPALSTEMIDAIEWVRYTVSCLSPPAKDLHVVPVESIFGSDSLDARDRLLKLLDSVPDDTGKEDLLLHLKMLSLQKVAAENGYNRLVLGSCTSRIASHVLTATVKGRGYSLSADIQHVDARWKVPIVLPLRDCVRLEITRLCLLDGLKTVELACRSQCGINDLVSSFVALLQEENPSRECTIVRTAAKLTPFYFNKIPETDDSNVPMATQRRLKRFNLKYDGSMTTEAFCPICNGPLNRSDSSELDTFEEGQESDVLYAACCSSCRFQILPQDGSSLEQFSSFLPDHMISQVKHQKVDSQAYLREKIKDCLLLDDEEVV
**Q.** For B1, which binding [4] is on record?
**A.** Its binding is “binds”.
